Three sequences from PMC11574364 can be followed below.

Amino acid sequences for entries named in this document (tags omitted). A change or cut given only in a name is not applied to a line headed by its entry.
UniProt P62256: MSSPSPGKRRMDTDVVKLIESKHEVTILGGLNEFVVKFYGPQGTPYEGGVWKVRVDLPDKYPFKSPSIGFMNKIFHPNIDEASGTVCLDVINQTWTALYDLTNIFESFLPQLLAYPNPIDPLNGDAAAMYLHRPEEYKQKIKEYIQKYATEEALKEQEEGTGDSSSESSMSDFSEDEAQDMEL
UniProt Q15691: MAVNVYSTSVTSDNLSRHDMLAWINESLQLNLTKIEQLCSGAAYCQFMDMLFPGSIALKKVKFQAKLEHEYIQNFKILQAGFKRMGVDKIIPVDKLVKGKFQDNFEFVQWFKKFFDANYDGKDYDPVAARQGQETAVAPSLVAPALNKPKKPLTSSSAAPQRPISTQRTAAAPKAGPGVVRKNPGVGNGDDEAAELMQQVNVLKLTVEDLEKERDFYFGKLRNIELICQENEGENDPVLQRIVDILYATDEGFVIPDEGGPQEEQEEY

What all share (experiment): human ORF protein microarray
One data set deals with T1, ZNF266 (Homo sapiens) (UniProt Q14584).
T1 sequence (looked up, limits assumed): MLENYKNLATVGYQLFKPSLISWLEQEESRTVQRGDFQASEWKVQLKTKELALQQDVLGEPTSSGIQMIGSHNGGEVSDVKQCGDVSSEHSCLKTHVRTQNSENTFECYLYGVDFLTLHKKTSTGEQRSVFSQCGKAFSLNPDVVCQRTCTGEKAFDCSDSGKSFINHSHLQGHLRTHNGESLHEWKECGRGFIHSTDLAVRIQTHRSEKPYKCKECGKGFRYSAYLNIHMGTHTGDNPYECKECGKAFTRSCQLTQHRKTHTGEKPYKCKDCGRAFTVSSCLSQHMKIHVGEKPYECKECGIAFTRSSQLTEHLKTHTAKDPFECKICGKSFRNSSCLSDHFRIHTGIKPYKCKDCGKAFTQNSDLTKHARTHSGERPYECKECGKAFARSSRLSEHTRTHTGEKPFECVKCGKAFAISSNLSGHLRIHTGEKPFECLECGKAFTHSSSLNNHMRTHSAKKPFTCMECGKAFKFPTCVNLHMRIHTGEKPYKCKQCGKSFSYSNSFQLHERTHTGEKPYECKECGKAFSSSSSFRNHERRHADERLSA
Conditions: 5' phosphate; Domain array: 20 mM Tris-HCl pH 7.4, 200 mM KCl, 0.2 mM EDTA, 0.05% NP40, 2 ug/ul heparin, overnight 4 C. ORF array: PBS pH 7.0 with RNase inhibitor, 100 ng RNA, 1 h.; recombinant protein; protein details: N-terminal GST-6xHis; label: internal DY647 at G18; letters put together from the description.

The next data set concerns the target T2, SOCS5 (Homo sapiens) (UniProt O75159).
T2 sequence (looked up, limits assumed): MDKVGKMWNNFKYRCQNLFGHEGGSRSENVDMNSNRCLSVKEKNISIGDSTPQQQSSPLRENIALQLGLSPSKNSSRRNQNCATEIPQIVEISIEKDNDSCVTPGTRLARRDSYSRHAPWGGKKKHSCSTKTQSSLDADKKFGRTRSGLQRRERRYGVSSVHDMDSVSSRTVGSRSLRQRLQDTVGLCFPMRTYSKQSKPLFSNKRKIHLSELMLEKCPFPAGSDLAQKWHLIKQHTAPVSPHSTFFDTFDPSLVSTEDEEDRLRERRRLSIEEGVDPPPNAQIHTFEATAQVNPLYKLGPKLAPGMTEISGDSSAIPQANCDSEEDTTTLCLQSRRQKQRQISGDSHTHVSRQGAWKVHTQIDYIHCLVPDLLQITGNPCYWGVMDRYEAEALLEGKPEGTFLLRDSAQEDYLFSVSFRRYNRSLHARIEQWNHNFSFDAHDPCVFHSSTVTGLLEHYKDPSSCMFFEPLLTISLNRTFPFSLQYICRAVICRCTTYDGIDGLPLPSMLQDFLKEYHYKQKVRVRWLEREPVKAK
Conditions: 5' phosphate; Domain array: 20 mM Tris-HCl pH 7.4, 200 mM KCl, 0.2 mM EDTA, 0.05% NP40, 2 ug/ul heparin, overnight 4 C. ORF array: PBS pH 7.0 with RNase inhibitor, 100 ng RNA, 1 h.; recombinant protein; protein details: N-terminal GST-6xHis; label: internal DY647 at G18; letters put together from the description.

Another data set addresses UBE2H (Homo sapiens) (UniProt P62256). Conditions: 5' phosphate; amino-C6 U at position 18; Domain array: 20 mM Tris-HCl pH 7.4, 200 mM KCl, 0.2 mM EDTA, 0.05% NP40, 2 ug/ul heparin, overnight 4 C. ORF array: PBS pH 7.0 with RNase inhibitor, 100 ng RNA, 1 h.; recombinant protein; protein details: N-terminal GST-6xHis; label: internal Cy5 or DY647.
Another data set concerns the target T3, ARHGAP28 (Homo sapiens) (UniProt Q9P2N2).
T3 sequence (looked up, limits assumed): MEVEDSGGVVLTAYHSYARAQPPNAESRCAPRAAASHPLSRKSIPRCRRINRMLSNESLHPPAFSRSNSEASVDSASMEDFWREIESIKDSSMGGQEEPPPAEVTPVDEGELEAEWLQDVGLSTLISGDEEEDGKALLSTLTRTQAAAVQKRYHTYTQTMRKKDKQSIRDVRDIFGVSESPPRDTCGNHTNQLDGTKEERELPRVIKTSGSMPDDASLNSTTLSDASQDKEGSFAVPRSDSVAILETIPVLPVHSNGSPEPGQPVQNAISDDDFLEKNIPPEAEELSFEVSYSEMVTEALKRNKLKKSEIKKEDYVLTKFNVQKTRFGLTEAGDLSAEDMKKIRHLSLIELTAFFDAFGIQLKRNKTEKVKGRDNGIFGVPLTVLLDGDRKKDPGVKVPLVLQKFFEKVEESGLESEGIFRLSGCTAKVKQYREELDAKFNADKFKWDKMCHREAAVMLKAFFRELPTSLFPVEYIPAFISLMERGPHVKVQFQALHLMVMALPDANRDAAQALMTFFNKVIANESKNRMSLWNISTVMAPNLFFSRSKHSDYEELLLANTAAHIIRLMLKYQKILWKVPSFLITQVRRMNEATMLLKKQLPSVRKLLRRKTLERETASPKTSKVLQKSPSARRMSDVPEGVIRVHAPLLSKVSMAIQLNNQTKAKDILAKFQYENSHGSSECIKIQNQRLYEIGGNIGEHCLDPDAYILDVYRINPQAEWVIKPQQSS
The note with it: 5' phosphate; amino-C6 U at position 18; Domain array: 20 mM Tris-HCl pH 7.4, 200 mM KCl, 0.2 mM EDTA, 0.05% NP40, 2 ug/ul heparin, overnight 4 C. ORF array: PBS pH 7.0 with RNase inhibitor, 100 ng RNA, 1 h.; recombinant protein; protein details: N-terminal GST-6xHis; label: internal Cy5 or DY647.

Another data set concerns the target MAPRE1 (Homo sapiens) (UniProt Q15691). Conditions: 5' phosphate; amino-C6 U at position 18; Domain array: 20 mM Tris-HCl pH 7.4, 200 mM KCl, 0.2 mM EDTA, 0.05% NP40, 2 ug/ul heparin, overnight 4 C. ORF array: PBS pH 7.0 with RNase inhibitor, 100 ng RNA, 1 h.; recombinant protein; protein details: N-terminal GST-6xHis; label: internal Cy5 or DY647.

For at least one entry, the source does not settle the construct or the ends of the probe. For some assays here: Protein sequences can lack the tags named with them.

For the sequence “CAGUGCAAUGAUGAAAGGGCAU [miR-130b (internal labeling)]”, the binding result with ZNF266 (Homo sapiens) is given as “binds”. “UAGCUUAUCAGACUGAUGUUGA [miR-21 (internal labeling)]”: the binding result with SOCS5 (Homo sapiens) is “binds”. For “UGAGGUAGUAGGUUGUGUGGUU [let-7b (internal labeling)]”, the binding result in the data set with UBE2H (Homo sapiens), in the data set with ARHGAP28 (Homo sapiens) and with MAPRE1 (Homo sapiens) was “binds” throughout.
